# Reference: the supplement of paper PMC3334620
# Over roughly 33,000 sequences, “E-score (-0.5 to 0.5)” has its median near -0.0059; the highest 2% begin near 0.26. Some of the results follow.
# Target: T1, Cin5 (UniProt P40917)
# T1 sequence: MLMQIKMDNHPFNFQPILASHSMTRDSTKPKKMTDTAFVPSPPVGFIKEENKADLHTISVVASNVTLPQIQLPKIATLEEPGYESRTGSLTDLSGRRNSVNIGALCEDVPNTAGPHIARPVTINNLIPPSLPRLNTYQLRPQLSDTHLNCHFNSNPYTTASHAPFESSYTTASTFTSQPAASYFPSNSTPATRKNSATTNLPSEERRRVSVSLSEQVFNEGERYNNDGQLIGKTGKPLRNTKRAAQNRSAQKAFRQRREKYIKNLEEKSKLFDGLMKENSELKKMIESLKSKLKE
# Test: PBM E-score (8-mer binding enrichment) (E-score (-0.5 to 0.5)); higher = stronger / more preferred TF binding
# Conditions: protein concentration: 100 nM; construct: GST-full length
# Method: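 Universal 'all 10-mer' protein binding microarrays (Agilent AMADID 015681) probed with GST-tagged S. cerevisiae TFs (full-length or DBD) made by in vitro transcription/translation (PURExpress), about 100-200 nM. Bound TF was detected with fluorescent anti-GST. Each ungapped 8-mer (which stands for itself and its reverse complement) is scored by the PBM enrichment score (E-score), a modified Wilcoxon-Mann-Whitney statistic from -0.5 to +0.5, computed with the Universal PBM Analysis Suite. Scale: above 0.35 generally sequence-specific binding.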
row,Sequence,PBM E-score
1,CATACTTA,0.0207
2,CAAGTCTA,-0.202
3,TAGGGCGA,-0.0105
4,CCTGGTCC,-0.0835
5,TAATGAGA,0.0551
6,CCTATTCG,-0.0618
7,CTCTGATA,0.00455
8,CGCGCAGC,-0.169
9,AAGATCAG,-0.103
10,ACTCGGTA,0.00378
11,TAGCCCTA,-0.129
12,CTGTGTCC,-0.119
13,CTTTTCTC,-0.025
14,ACTCTAGC,-0.211
15,AAAGTCGA,-0.024
16,GAGCACGC,-0.0491
17,AATCATAC,0.206
18,AACACGCT,0.0254
19,ACCGTCTA,-0.157
20,GTCCCGAA,-0.145
21,AAGACACA,-0.0535
22,AAATATCT,0.155
23,CAGCATGA,-0.0456
24,ACCGGGTA,-0.0534
25,GCTCACAA,0.03

row,Sequence,PBM E-score
1,ATATATAT,0.146
2,ATATCAAC,0.144
3,CTAGGCTC,-0.367
4,ACCGCGTG,-0.186
5,CGTCCAAC,-0.11
6,CGATGTCA,-0.00486
7,ACGTCTCT,-0.0284
8,AACGCTAG,-0.225
9,CCATCATC,0.0863
10,AGAACGAG,0.0109
11,TCCAGGCA,-0.0563
12,GTGCCCAC,-0.128
13,CCAAGTAA,0.145
14,CTTTTAGA,-0.0224
15,GACGAGTA,0.0712
16,AGAGTTAT,0.217
17,GACACAGC,-0.0691
18,CCCCCGCC,-0.349
19,AAACCGGA,0.101
20,CCGTCCTC,-0.197
21,AACCTTTA,-0.0683
22,CTTACGGC,0.0357
23,CTGGCGCA,-0.194
24,GCTTTGCA,-0.21
25,AACACCCC,-0.128

row,Sequence,PBM E-score
1,CACCCGCC,0.152
2,GAAAAACA,-0.0228
3,CGGGAAGC,0.00431
4,GGAACTAC,-0.00634
5,ACCTCAAA,0.027
6,CCCTGGCA,-0.229
7,TAGGAGGA,-0.142
8,ACTTACGA,0.207
9,AGGGTGGA,-0.0449
10,ATAGTATG,0.169
11,ATAACCTC,0.00091
12,CAGTGTAG,0.0229
13,GCTCCAGC,-0.0872
14,AGTCGTAA,0.121
15,GCCACGGC,-0.212
16,GGGAGCAA,-0.22
17,GAAGCTCC,-0.135
18,CCCAAGCA,0.0351
19,CATACAGC,-0.136
20,GCGCGTGA,-0.0444
21,AAAACCAC,-0.0216
22,GGGTACAC,-0.194
23,CTCCATAC,0.0259
24,ACACTAGG,0.162
25,GACGCTTA,-0.059

row,Sequence,PBM E-score
1,GGCACGGA,-0.0181
2,CCTCTCTA,-0.287
3,CTCTTGTA,-0.0977
4,GGATAATA,0.169
5,AAGGTGAC,-0.184
6,AAAGATTC,-0.00486
7,CTAACATA,0.204
8,GTCGCAAC,0.0922
9,CACAAAGA,0.0063
10,GGCTTCGA,-0.027
11,ACGTAGAT,0.205
12,GATTCCAC,0.0898
13,AGGACCAC,-0.137
14,GGCGGGAC,-0.0609
15,ACCTCGTC,0.0333
16,CGCGCCAG,-0.179
17,GTCCTTTA,-0.0791
18,GTGCCTCA,-0.274
19,GGTGGAAA,-0.0181
20,GCTAAAGA,0.102
21,TCTGATAA,0.158
22,TATCCAAA,0.134
23,GGTAAAAA,0.083
24,ACTGTCGC,0.0215
25,AAGGACAC,-0.0294

# Quoted at random: 2 records from the list
row,Sequence,PBM E-score
2,CCTCTCTA,-0.287
23,CAGCATGA,-0.0456

# Look-ups from the list:
# Under PBM E-score, ACGTAGAT shows 0.205
# Under PBM E-score, ACTCTAGC shows -0.211
# Under PBM E-score, AACGCTAG shows -0.225
# Under PBM E-score, GATTCCAC shows 0.0898

# (listing goes on)

row,Sequence,PBM E-score
1,CACGCGGC,-0.0526
2,CAATACTC,0.227
3,ATGAGCTC,-0.0424
4,CGATGGGC,0.0315
5,CTAGAAAA,0.0407
6,CTCTGTTC,0.0727
7,AAAATTGG,0.122
8,GGGCTCGA,-0.151
9,CCGTTGTC,0.131
10,ACGGCTAT,-0.19
11,CACGGCGC,-0.00846
12,GGTGGTTA,0.136
13,GAATTAAC,0.0843
14,CAGTAGAC,-0.0308
15,CTGGTTGC,0.112
16,AACACAGA,0.123
17,CCCCCGAA,-0.374
18,AGCCACTG,0.0225
19,CATCCTAC,-0.0387
20,GAATCTAA,0.0968
21,GATAGGGC,0.00421
22,GCGATTTA,0.109
23,AGCTGGCC,-0.0303
24,AAAGGAAT,0.102
25,GAGCCTCA,-0.163

row,Sequence,PBM E-score
1,GGTTGCAC,-0.0326
2,GCCGGAAA,0.0144
3,TAGTCACA,0.0468
4,CCCGTATC,-0.0502
5,CTAAGGAG,-0.132
6,AATCACTA,0.122
7,ATTGGGGA,0.00734
8,CATGAGCC,-0.21
9,CGCAGTAG,-0.0567
10,AGCCTTCA,-0.143
11,CTAGTGAC,-0.0966
12,TGCAGCCA,0.0515
13,CTCGCCCA,-0.0749
14,TAAAGCAA,0.169
15,CATTGCAA,-0.0643
16,AATGCCGT,0.229
17,AGGACGAA,0.0753
18,AGCCAGCT,-0.266
19,TATCACCA,0.147
20,AACACCTC,-0.129
21,CGCATCGA,0.182
22,CTCGATGA,0.185
23,GGTACAAA,-0.008
24,AATTGCCA,0.0197
25,ATTGTCCG,0.153

row,Sequence,PBM E-score
1,CCATAGCG,-0.0236
2,CCGATATC,0.013
3,AAGGGCTG,-0.324
4,GAAGATGC,0.00103
5,ACGCGGTG,-0.174
6,AATACAAA,0.342
7,CAGACAGG,-0.216
8,GGCGATCA,-0.173
9,CCTATACC,-0.0604
10,AGATTGGA,0.0533
11,CGCCAAAC,-0.072
12,GGAGGGAA,-0.27
13,GAACCTAA,0.123
14,CGAAACAC,0.0883
15,GACTTCCC,-0.2
16,CAGGCCTC,-0.287
17,GCTCGACA,-0.211
18,CACGATTC,0.0668
19,AACAAGGC,-0.0877
20,CGCATAAC,0.195
21,ATTACGTC,0.371
22,TATTCCGA,0.158
